The experiment deals with T1, His-tagged AHRR expressed in 293T cells (UniProt A9YTQ3).
T1 sequence: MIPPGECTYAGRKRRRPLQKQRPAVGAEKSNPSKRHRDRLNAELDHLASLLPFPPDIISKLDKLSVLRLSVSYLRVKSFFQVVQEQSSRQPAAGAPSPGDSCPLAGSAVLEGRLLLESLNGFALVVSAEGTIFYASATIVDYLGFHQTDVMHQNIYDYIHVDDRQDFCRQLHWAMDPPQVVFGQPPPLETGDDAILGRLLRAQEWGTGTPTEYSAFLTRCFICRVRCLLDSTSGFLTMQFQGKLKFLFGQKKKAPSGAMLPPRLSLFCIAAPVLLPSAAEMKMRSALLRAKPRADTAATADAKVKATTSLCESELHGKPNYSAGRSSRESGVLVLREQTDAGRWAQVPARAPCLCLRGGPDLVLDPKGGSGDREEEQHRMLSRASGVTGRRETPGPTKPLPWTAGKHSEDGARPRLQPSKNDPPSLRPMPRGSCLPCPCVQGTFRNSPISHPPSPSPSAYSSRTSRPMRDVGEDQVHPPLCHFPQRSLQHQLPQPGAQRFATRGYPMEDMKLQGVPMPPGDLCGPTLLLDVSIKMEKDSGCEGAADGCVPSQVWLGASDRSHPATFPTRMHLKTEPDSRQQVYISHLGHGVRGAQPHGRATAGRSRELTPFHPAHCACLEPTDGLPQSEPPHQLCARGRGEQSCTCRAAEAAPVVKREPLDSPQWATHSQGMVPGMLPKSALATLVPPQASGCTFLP
Kind of experiment: co-IP; 293T cells transfected with LIMR and His-tagged AHRR, with or without LINC00305; precipitated with anti-His antibody or normal rabbit IgG, blotted with anti-His and anti-LIMR.

Results are given in words; binding and its absence hold for the method and conditions named. Binding seen in cells or lysates may run through a third protein. Some results given as binding are weak or reduced against the parent protein; the word gives no strength. Where a sequence is shown, tags or fusion partners need not be part of it.

B1: LIMR expressed in 293T cells (receptor, UniProt Q6UX01 1-489)
chain: MEAPDYEVLSVREQLFHERIRECIISTLLFATLYILCHIFLTRFKKPAEFTTVDDEDATVNKIALELCTFTLAIALGAVLLLPFSIISNEVLLSLPRNYYIQWLNGSLIHGLWNLVFLFSNLSLIFLMPFAYFFTESEGFAGSRKGVLGRVYETVVMLMLLTLLVLGMVWVASAIVDKNKANRESLYDFWEYYLPYLYSCISFLGVLLLLVCTPLGLARMFSVTGKLLVKPRLLEDLEEQLYCSAFEEAALTRRICNPTSCWLPLDMELLHRQVLALQTQRVLLEKRRKASAWQRNLGYPLAMLCLLVLTGLSVLIVAIHILELLIDEAAMPRGMQGTSLGQVSFSKLGSFGAVIQVVLIFYLMVSSVVGFYSSPLFRSLRPRWHDTAMTQIIGNCVCLLVLSSALPVFSRTLGLTRFDLLGDFGRFNWLGNFYIVFLYNAAFAGLTTLCLVKTFTAAVRAELIRAFGLDRLPLPVSGFPQASRKTQHQ
Turning to B1, the binding entry is reported as “binds”.

For the origin of these results see publication PMC5385552.
